Test systems include OR10C1 clone 1065; OR10G3 S73G clone 1272; OR10G6 clone 1108; OR10G7 clone 1589; OR10G8 clone 1396; OR10H1 clone 1291; OR10H2 L40Q clone 1461; OR10H3 clone 1525; OR10H5 A224D clone 1294; OR10J1 clone 1711; OR10J3 clone 1458; OR10J5 R233W clone 1410; OR10J5 clone 1037; OR10K1 clone 1024; OR10K2 clone 1040; OR10P1 clone 1254; OR10Q1 clone 1202.
Experiment in all cases: odorant receptor activation (CRE luciferase / Renilla) (fold of no-odor wells); higher = more activation
Common to all, as to settings: 100 µM

Assay [1] relates to OR10G4 A9V/M134V/V195E/R235G/K295Q clone 1119.
The subject of assay [2] is OR10G9 A90T/M134V clone 1192.
Assay [3] relates to OR10R2 A191T/E216G/L239F clone 1304.

Several values for one entry are separate records, joined by “and”; a condition that tells them apart may be missing. Identical values can stand only once. This is one part of the list. Single wells; the ratio to wells without odorant was worked out here, and repeats agree poorly.

Take `CS` [methanethiol]: the odorant receptor activation was determined as 1.05 in the assay with OR10C1 clone 1065; 0.896 in the assay with OR10G3 S73G clone 1272; 0.983 in [1]; 0.821 with OR10G6 clone 1108; 1.48 in the assay on OR10G7 clone 1589; 0.977 in the assay with OR10G8 clone 1396. Also, the odorant receptor activation turned out to be 1.03 in [2]; 0.876 in the assay with OR10H1 clone 1291; 1.01 in the assay on OR10H2 L40Q clone 1461; 0.984 in the assay on OR10H3 clone 1525; 0.869 in the assay on OR10H5 A224D clone 1294; 0.928 in the assay with OR10J1 clone 1711. In addition, the odorant receptor activation in the assay on OR10J3 clone 1458 is 0.739; in the assay on OR10J5 R233W clone 1410, 1.25; with OR10J5 clone 1037, 1.04; with OR10K1 clone 1024 it was 1.65; with OR10K2 clone 1040, 1.05; in the assay with OR10P1 clone 1254, 0.821. In addition, the odorant receptor activation in the assay with OR10Q1 clone 1202 came to 0.954; in [3] it was 0.985.
For the compound `CCOc1cc(C=O)ccc1O` [ethyl vanillin], the odorant receptor activation is 0.784 and 1.32 in the assay with OR10C1 clone 1065; 4.1 in [1]; 1.15 and 1.18 in the assay with OR10G6 clone 1108; 1.07 with OR10G7 clone 1589; 1.03 and 1.21 in the assay with OR10G8 clone 1396; 3.23 and 1.38 in [2]. The odorant receptor activation with OR10H1 clone 1291 was 2.01 and 1; in the assay on OR10H2 L40Q clone 1461, 1.44 and 1.94 and 1.25; in the assay on OR10H3 clone 1525 it was 1.14 and 2.14 and 1.18; in the assay on OR10H5 A224D clone 1294, 0.914 and 1.26; in the assay on OR10J1 clone 1711, 0.859; with OR10J3 clone 1458, 0.896. The odorant receptor activation in the assay on OR10J5 R233W clone 1410 was 0.996 and 0.962; in the assay with OR10J5 clone 1037, 1.67 and 0.973; in the assay with OR10K1 clone 1024 it was 1.14 and 1.35; in the assay on OR10K2 clone 1040, 1.77 and 1.14; with OR10P1 clone 1254, 2.48 and 1.08; in the assay with OR10Q1 clone 1202 it was 1.46 and 1.34. Besides, the odorant receptor activation in [3] was 1.33 and 1.16.
Consider `CCC(C)=O` [2-butanone], for which the odorant receptor activation in the assay with OR10C1 clone 1065 amounted to 3.38; in the assay on OR10G3 S73G clone 1272, 1.47; in [1], 0.786; with OR10G6 clone 1108 it was 24.8; with OR10G7 clone 1589, 1.28; in the assay with OR10G8 clone 1396, 0.792. Further, the odorant receptor activation in assay [2] worked out at 0.845; in the assay with OR10H1 clone 1291, 0.87; with OR10H2 L40Q clone 1461, 1.16; with OR10H3 clone 1525, 1.15; in the assay with OR10H5 A224D clone 1294 it was 0.63; in the assay on OR10J1 clone 1711 it was 0.857. Further, the odorant receptor activation with OR10J3 clone 1458 is 0.881; in the assay on OR10J5 R233W clone 1410 it was 1.69; in the assay on OR10J5 clone 1037, 2.7; with OR10K1 clone 1024, 2.85; in the assay with OR10K2 clone 1040, 2.67; in the assay on OR10P1 clone 1254, 1.02. For the same compound, the odorant receptor activation is 0.908 with OR10Q1 clone 1202 and 1.05 in assay [3].
Turning to `CCCCOC(C)=O` [butyl acetate], the odorant receptor activation in the assay with OR10C1 clone 1065 stood at 1.21; in the assay with OR10G3 S73G clone 1272 it was 0.772; in [1], 0.894; in the assay on OR10G6 clone 1108 it was 1.23; with OR10G7 clone 1589, 0.272; with OR10G8 clone 1396 it was 0.33. Also, the odorant receptor activation in assay [2] stood at 1.07; in the assay on OR10H1 clone 1291, 1.1; with OR10H2 L40Q clone 1461 it was 1.07; in the assay with OR10H3 clone 1525, 0.846; in the assay with OR10H5 A224D clone 1294, 0.637; in the assay on OR10J1 clone 1711 it was 0.881. For the same compound, the odorant receptor activation turned out to be 1.09 with OR10J3 clone 1458; 0.193 in the assay on OR10J5 R233W clone 1410; 1.48 in the assay with OR10J5 clone 1037; 1.23 with OR10K1 clone 1024; 0.969 in the assay with OR10K2 clone 1040; 0.8 in the assay with OR10P1 clone 1254. Further, the odorant receptor activation with OR10Q1 clone 1202 stood at 1.01; in [3] it was 0.691.

Values taken from the odorant receptor screen of Mainland et al. (2015).
